{"source": "PubChem BioAssay AID1259275 (Sanger Institute, 2017)", "assay": "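Knock-downs that cut viability on their own or combined with BYL719, cetuximab or trametinib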 (primary screen)", "system": "COLO320HSR human colorectal cancer cells", "reagents": "siRNA pool against human genes", "challenge": "anchor drug added one day after transfection: BYL719 at 1 µM, cetuximab at 5 µg/ml or trametinib at 10 nM; DMSO as vehicle arm", "measured": "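Replicate-mean viability versus non-targeting pool control, robust z-score without drug, and per-drug synergy scores for BYL719 at 1 µM, cetuximab at 5 µg/ml and trametinib at 10 nM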", "reading the numbers": "robust z-score, siRNA alone: higher = more viable cells; strongly negative means essential", "active means": "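a gene is called essential when its robust z-score without drug falls below -3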", "meaning of the calls": "active = essential (siRNA alone); inactive = no change (siRNA alone)", "note": "In all, the deposit lists 794 reagents; shown is an unselected part. Over the whole deposit, 13 (1.6%) were called active. 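Calls mark knock-downs lethal by themselves, not drug synergy; drugs went in a day after transfection, with DMSO as vehicle.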 Further read-outs or replicates are left out here. Not stated in the record: the amount of reagent, the time to read-out."}
{"gene symbol": "BCOR", "robust z-score, siRNA alone": 0.726, "call": "inactive"}
{"gene symbol": "SBK1", "robust z-score, siRNA alone": 0.284, "call": "inactive"}
{"gene symbol": "MET", "robust z-score, siRNA alone": 0.726, "call": "inactive"}
{"gene symbol": "FGR", "robust z-score, siRNA alone": -0.982, "call": "inactive"}
{"gene symbol": "GUCY2C", "robust z-score, siRNA alone": 0.726, "call": "inactive"}
{"gene symbol": "THNSL1", "robust z-score, siRNA alone": 0.659, "call": "inactive"}
{"gene symbol": "WHR1", "robust z-score, siRNA alone": 0.726, "call": "inactive"}
{"gene symbol": "PANK2", "robust z-score, siRNA alone": 0.373, "call": "inactive"}
{"gene symbol": "PIK3C3", "robust z-score, siRNA alone": 0.726, "call": "inactive"}
{"gene symbol": "SCYL3", "robust z-score, siRNA alone": 0.715, "call": "inactive"}
{"gene symbol": "CDC7", "robust z-score, siRNA alone": 0.0892, "call": "inactive"}
{"gene symbol": "ITK", "robust z-score, siRNA alone": 0.422, "call": "inactive"}
{"gene symbol": "DLG1", "robust z-score, siRNA alone": 0.563, "call": "inactive"}
{"gene symbol": "JAK3", "robust z-score, siRNA alone": 0.726, "call": "inactive"}
{"gene symbol": "MAGI2", "robust z-score, siRNA alone": 0.726, "call": "inactive"}
{"gene symbol": "SMC1A", "robust z-score, siRNA alone": -2.36, "call": "inactive"}
{"gene symbol": "NUP62", "robust z-score, siRNA alone": -1.14, "call": "inactive"}
{"gene symbol": "NADK", "robust z-score, siRNA alone": -1.38, "call": "inactive"}
{"gene symbol": "RPS6KA2", "robust z-score, siRNA alone": -0.672, "call": "inactive"}
{"gene symbol": "SRPK2", "robust z-score, siRNA alone": 0.407, "call": "inactive"}
{"gene symbol": "DIS3", "robust z-score, siRNA alone": 0.726, "call": "inactive"}
{"gene symbol": "CHKB", "robust z-score, siRNA alone": 0.726, "call": "inactive"}
{"gene symbol": "MYO3A", "robust z-score, siRNA alone": -1.19, "call": "inactive"}
{"gene symbol": "ASPM", "robust z-score, siRNA alone": -0.69, "call": "inactive"}
{"gene symbol": "CHEK2", "robust z-score, siRNA alone": 0.028, "call": "inactive"}
{"gene symbol": "FGFR3", "robust z-score, siRNA alone": -0.482, "call": "inactive"}
{"gene symbol": "CKS2", "robust z-score, siRNA alone": 0.726, "call": "inactive"}
{"gene symbol": "AKT3", "robust z-score, siRNA alone": -0.475, "call": "inactive"}
